Among the data in article PMC9240598 are binding values, retold here.

Chains of the proteins cited; added tags and fusions are not shown. Lines headed by an entry give the natural chain unless they say otherwise; changes in a name come on top.
UniProt A0A977LM10: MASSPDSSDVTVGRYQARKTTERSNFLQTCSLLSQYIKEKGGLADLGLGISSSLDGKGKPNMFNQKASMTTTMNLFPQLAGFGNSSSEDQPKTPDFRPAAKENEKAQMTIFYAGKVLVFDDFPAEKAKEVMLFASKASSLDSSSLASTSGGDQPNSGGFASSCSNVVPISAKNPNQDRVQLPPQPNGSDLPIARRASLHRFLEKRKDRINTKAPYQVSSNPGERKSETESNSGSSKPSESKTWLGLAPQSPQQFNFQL
UniProt A0A977LLH1: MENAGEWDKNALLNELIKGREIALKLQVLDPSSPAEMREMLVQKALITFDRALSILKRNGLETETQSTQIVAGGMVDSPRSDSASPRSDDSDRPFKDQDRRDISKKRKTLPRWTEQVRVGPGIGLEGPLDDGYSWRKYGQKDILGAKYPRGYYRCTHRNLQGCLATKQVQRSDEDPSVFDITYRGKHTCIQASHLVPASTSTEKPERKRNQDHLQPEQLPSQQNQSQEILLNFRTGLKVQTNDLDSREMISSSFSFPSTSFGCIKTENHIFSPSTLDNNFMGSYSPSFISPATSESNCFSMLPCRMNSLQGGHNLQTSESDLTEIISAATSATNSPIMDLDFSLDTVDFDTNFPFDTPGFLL
UniProt A0A977LLH4: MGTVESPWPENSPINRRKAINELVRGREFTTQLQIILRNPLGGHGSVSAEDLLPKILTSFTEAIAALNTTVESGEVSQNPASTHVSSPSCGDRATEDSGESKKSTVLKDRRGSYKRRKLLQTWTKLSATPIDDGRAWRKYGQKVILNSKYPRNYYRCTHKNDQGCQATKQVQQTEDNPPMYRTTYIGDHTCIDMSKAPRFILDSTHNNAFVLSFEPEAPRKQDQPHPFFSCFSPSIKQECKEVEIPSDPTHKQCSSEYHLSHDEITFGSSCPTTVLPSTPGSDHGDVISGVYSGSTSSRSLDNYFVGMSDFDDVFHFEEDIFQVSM

Results are given in words; binding and its absence hold for the method and conditions named. Binding seen in cells or lysates may run through a third protein. Binding calls can cover weak binding; strength is not graded here.

The assay deals with NnWRKY70b:nYFP fusion protein (BiFC) (Nelumbo nucifera (lotus)). Kind of assay: split reporter; BiFC with the 2in1 split-EYFP system (pBiFCt-2in1-CN), both fusions from one vector with mRFP as internal marker; agro-infiltrated N. benthamiana leaves, confocal microscopy.
Take “NnJAZ1 (BiFC fusion in pBiFCt-2in1-CN) (from UniProt A0A977LM10)”: the binding entry is given as “binds”.

With “NnWRKY53b (BiFC fusion in pBiFCt-2in1-CN) (from UniProt A0A977LLH1)”, the binding entry is on record as “binds”. In the case of “NnWRKY70a (BiFC fusion in pBiFCt-2in1-CN) (from UniProt A0A977LLH4)” it was “binds”.
